According to publication PMC4519142:
Results are given in words; binding and its absence hold for the method and conditions named. Some entries that bind do so weakly or less than the wild type. Where a sequence is shown, tags or fusion partners need not be part of it.

Molecular target: T1, PDZD7 (yeast two-hybrid fusion) (UniProt Q9H5P4)
T1 sequence: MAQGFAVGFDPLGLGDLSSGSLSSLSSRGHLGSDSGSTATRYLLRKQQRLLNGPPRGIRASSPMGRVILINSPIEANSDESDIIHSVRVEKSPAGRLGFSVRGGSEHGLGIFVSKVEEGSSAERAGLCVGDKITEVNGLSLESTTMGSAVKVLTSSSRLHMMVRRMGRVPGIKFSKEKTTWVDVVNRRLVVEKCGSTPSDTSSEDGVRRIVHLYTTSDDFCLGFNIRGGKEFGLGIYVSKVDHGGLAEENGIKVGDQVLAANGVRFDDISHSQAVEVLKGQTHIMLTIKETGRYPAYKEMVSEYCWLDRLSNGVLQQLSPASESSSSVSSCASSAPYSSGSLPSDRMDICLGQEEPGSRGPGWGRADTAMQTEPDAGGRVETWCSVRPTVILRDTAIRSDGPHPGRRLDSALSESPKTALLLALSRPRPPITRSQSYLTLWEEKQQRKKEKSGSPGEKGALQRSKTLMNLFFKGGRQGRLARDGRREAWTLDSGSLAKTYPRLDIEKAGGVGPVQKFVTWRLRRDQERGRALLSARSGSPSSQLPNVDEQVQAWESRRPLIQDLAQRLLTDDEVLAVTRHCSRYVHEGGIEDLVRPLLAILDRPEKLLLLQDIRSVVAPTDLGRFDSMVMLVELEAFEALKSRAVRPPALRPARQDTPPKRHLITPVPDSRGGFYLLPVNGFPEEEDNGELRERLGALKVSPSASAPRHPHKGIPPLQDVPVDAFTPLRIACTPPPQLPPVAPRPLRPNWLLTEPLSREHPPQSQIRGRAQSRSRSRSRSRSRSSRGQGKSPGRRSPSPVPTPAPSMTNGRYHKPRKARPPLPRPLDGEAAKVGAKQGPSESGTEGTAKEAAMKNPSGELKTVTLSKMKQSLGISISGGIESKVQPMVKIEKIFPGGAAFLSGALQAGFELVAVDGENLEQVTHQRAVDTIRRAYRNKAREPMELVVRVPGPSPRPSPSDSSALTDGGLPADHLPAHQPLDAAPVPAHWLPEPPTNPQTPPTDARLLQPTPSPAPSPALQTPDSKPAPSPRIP
Assay: two-hybrid; dedicated yeast two-hybrid screen of 200 (predicted) ciliary proteins

B1: IFT57 (protein, UniProt Q9NWB7 1-429)
chain: MTAALAVVTTSGLEDGVPRSRGEGTGEVVLERGPGAAYHMFVVMEDLVEKLKLLRYEEEFLRKSNLKAPSRHYFALPTNPGEQFYMFCTLAAWLINKAGRPFEQPQEYDDPNATISNILSELRSFGRTADFPPSKLKSGYGEHVCYVLDCFAEEALKYIGFTWKRPIYPVEELEEESVAEDDAELTLNKVDEEFVEEETDNEENFIDLNVLKAQTYHLDMNETAKQEDILESTTDAAEWSLEVERVLPQLKVTIRTDNKDWRIHVDQMHQHRSGIESALKETKGFLDKLHNEITRTLEKISSREKYINNQLENLVQEYRAAQAQLSEAKERYQQGNGGVTERTRLLSEVMEELEKVKQEMEEKGSSMTDGAPLVKIKQSLTKLKQETVEMDIRIGIVEHTLLQSKLKEKSNMTRNMHATVIPEPATGFY
  binding: binds
